Assay: H2S release in human serum (dansylazide method)
Format: in vitro ADME
Conditions: 37 °C, 200 µM

| Compound | % H2S mol/mol ± SE (1 h) [% mol/mol] | % H2S mol/mol ± SE (4 h) [% mol/mol] | % H2S mol/mol ± SE (24 h) [% mol/mol] |
| --- | --- | --- | --- |
| C=CCSCC(NC(C)=O)C(=O)O (stereo not drawn) [Compound 1] | 0.4 ± 0.1 | 1.5 ± 0.1 | 3.9 ± 0.9 |
| C=CCSSCCC(=O)O [Compound 3] | 1.5 ± 0.2 | 8.2 ± 0.3 | 23 ± 2 |
| C=CCSSCCC(=O)OCC [Compound 4] | 5.8 ± 0.2 | 10 ± 1 | 24.2 ± 0.9 |
| C=CCSSCC(NC(C)=O)C(=O)O (stereo not drawn) [Compound 5] | 2.7 ± 0.2 | 11 ± 2 | 21 ± 1 |
| O=C(O)CCC(=O)NSC(=O)c1ccccc1 [Compound 7] | 0.3 ± 0.2 | 1.4 ± 0.2 | 5 ± 1 |
| CC(=O)NSC(=O)c1ccccc1 [Compound 8] | 16 ± 1 | 25.8 ± 0.4 | 47 ± 1 |
| O=C(O)c1ccc(-c2ssc(=S)c2-c2ccccc2)cc1 [Compound 9] | 0.4 ± 0.1 | 1.7 ± 0.6 | 4.4 ± 0.9 |
| COC(=O)c1ccc(-c2ssc(=S)c2-c2ccccc2)cc1 [Compound 10] | 1.8 ± 0.3 | 7.5 ± 0.6 | 12.0 ± 0.9 |
| O=C(O)c1ccc(-c2cssc2=S)cc1 [Compound 11] | 0.4 ± 0.4 | 4 ± 1 | 33 ± 4 |
| CCOC(=O)c1ccc(-c2cssc2=S)cc1 [Compound 12] | 17 ± 8 | 63 ± 30 | 146 ± 34 |
| O=C(O)COc1ccc(-c2cc(=S)ss2)cc1 [Compound 13] | 0 | 0.7 ± 0.2 | 2.4 ± 0.5 |
| CCOC(=O)COc1ccc(-c2cc(=S)ss2)cc1 [Compound 14] | 0 | 0.5 ± 0.3 | 1.8 ± 0.6 |
| O=C(O)c1csc(=S)s1 [Compound 15] | 0.2 ± 0.4 | 1.3 ± 0.2 | 2.8 ± 0.5 |
| COC(=O)c1csc(=S)s1 [Compound 16] | 0.4 ± 0.2 | 1.7 ± 0.5 | 2.5 ± 0.9 |
| NC(=S)c1ccc(C(=O)O)cc1 [Compound 17] | 0.2 ± 0.2 | 1.0 ± 0.3 | 6 ± 1 |
| COC(=O)c1ccc(C(N)=S)cc1 [Compound 18] | 1.4 ± 0.4 | 11.0 ± 0.3 | 44 ± 2 |

— publication PMC9951978, “Comparative Study of Different H2S Donors as Vasodilators and Attenuators of Superoxide-Induced Endothelial Damage” (Antioxidants, 2023)
